Experimental data: patent publication US20220183937A1, “METHOD FOR IMPROVING THE PERFORMANCE OF A FRAGRANCE OR A FRAGRANCE MIXTURE” (SYMRISE AG, priority 2019, published 2022)

Test: Diffusivity: panel smelling test, impact of a fragrance over a distance
Details: scale 1=no impact within 3 min to 9=high impact within 10 sec, 0.5 g in petri dish at 50 cm, 8 panelists, head range 7 a 9

Molecule | Diffusivity (Example 1) | Diffusivity (Example 2)
O=CCc1ccccc1 | 7.7 | 
COC(Cc1ccccc1)OC | 7.9 | 
CC1(C)[C@@H]2CC[C@@]1(C)[C@H](O)C2 (racemic) [ISOBORNEOL] | 8.2 | 
COc1ccc(C(C)=O)cc1 [ACETANISOLE CRYST., ACETANISOLE] | 7.1 | 
CC(=O)c1ccccc1 [ACETOPHENONE] | 8.3 | 
CC(=O)c1nccs1 [ACETYL THIAZOLE-2] | 8.8 | 
CCCCCC1CCC(=O)O1 (stereo not drawn) [ALDEHYDE C18 SO-CALLED] |  | 7.9
CCCCCCCC=O [ALDEHYDE C 8] | 8 | 
C=CCOC(=O)COCCC(C)C [ALLYL AMYL GLYCOLATE] | 7.8 | 
CCCCCOC(C)=O [AMYL ACETATE N] | 8.8 | 
COc1ccc(C=O)cc1 [ANISIC ALDEHYDE PURE, ANISIC ALDEHYDE] | 7.1 | 
CC(=O)OCc1ccccc1 [BENZYL ACETATE] | 7.2 | 
O=COCc1ccccc1 [BENZYL FORMATE] | 7.3 | 
CCCCOC(C)=O [BUTYL ACETATE] | 7.6 | 
O=c1ccc2ccccc2o1 [COUMARIN] |  | 7.1
Cc1ccc(O)cc1 [CRESOL PARA] | 8.1 | 
COc1ccc(C)cc1 [CRESYL METHYL ETHER PARA] | 8 | 
C=CCOC(=O)COC1CCCCC1 [CYCLOGALBANAT®] |  | 8.3
CC(=O)OC1CCCCC1 [CYCLOHEXYL ACETATE] | 7.9 | 
CCCCCC1CCCC(=O)O1 (stereo not drawn) [DECALACTONE DELTA] |  | 7.4
CCCCCCC1CCC(=O)O1 (stereo not drawn) [DECALACTONE GAMMA] |  | 7.3
CCCC(=O)OCC [ETHYL BUTYRATE] | 7.8 | 
CCCCCC(=O)OCC [ETHYL CAPROATE] | 8.2 | 
CCc1occc(=O)c1O [ETHYL MALTOL] |  | 7.1
CCOC(=O)COc1ccccc1 [ETHYL PHENOXY ACETATE] |  | 7.8

Molecule | Diffusivity (Example 1) | Diffusivity (Example 2)
CCOC(=O)Cc1ccccc1 [ETHYL PHENYL ACETATE] |  | 7.2
CCOC(=O)CC [ETHYL PROPIONATE] | 8.7 | 
CC12CCC(C1)C(C)(C)C2O (stereo not drawn) [FENCHOL] | 7.9 | 
O=Cc1ccc2c(c1)OCO2 [HELIOTROPIN] |  | 7.1
CCCC1CCC(=O)O1 (stereo not drawn) [HEPTALACTONE GAMMA] |  | 7.8
CC(=O)C1CCCC(C)(C)C1 (stereo not drawn) [HERBAC] | 7 | 
CCC/C=C/C=O [HEXENAL TRANS-2] | 8.1 | 
CC/C=C\CCOC(C)=O [HEXENYL ACETATE CIS-3] | 7.5 | 
CCCCCCOC(C)=O [HEXYL ACETATE] | 7.8 | 
COC(OC)C(C)c1ccccc1 (stereo not drawn) [HYDRATROPIC ALDEHYDE DIMETH.ACET] | 7 | 
c1ccc2[nH]ccc2c1 [INDOLE FF, INDOLE] |  | 8
CC(=O)OCCC(C)C [ISOAMYL ACETATE] | 7.8 | 
CC(=O)OCC(C)C [ISOBUTYL ACETATE] | 7.8 | 
COc1nccnc1CC(C)C [ISOBUTYL METHOXYPYRAZINE-3,2] |  | 8.1
CC=Cc1ccc(O)c(OC)c1 [ISOEUGENOL] |  | 7.5
COc1nccnc1C(C)C [ISOPROPYL METHOXYPYRAZINE-2,3] | 8.4 | 
Cc1csc(C(C)C)n1 [ISOPROPYL METHYL THIAZOLE-2,4] | 8.4 | 
CC/C=C\CCOC(C)OCC (stereo not drawn) [LEAF ACETAL] | 7.5 | 
CC/C=C\CCOC(=O)OC [LEAFOVERT®] | 7.8 | 
CC1=CC(C)C(C=O)CC1 (stereo not drawn) [LIGUSTRAL] | 7.7 | 
CCCC(C)C(=O)OCC (stereo not drawn) [MANZANATE] | 7.4 | 
CC(=O)c1ccc(C)cc1 [METHYL ACETOPHENONE PARA] | 8.2 | 
COC(=O)c1ccccc1N [METHYL ANTHRANILATE (=130085), METHYL ANTHRANILATE] |  | 7.5
CCCCCC(=O)OC [METHYL CAPROATE] | 7.8 | 
CCOc1cc(COC)ccc1O [METHYL DIANTILIS] |  | 7.4

Molecule | Diffusivity (Example 1) | Diffusivity (Example 2)
COc1cc(C)ccc1O [METHYL GUAIACOL-4] |  | 8.2
CCCCCC#CC(=O)OC [METHYL HEPTIN CARBONATE] | 7.5 | 
COC(=O)Cc1ccccc1 [METHYL PHENYLACETATE] | 7.4 | 
COC(=O)c1ccccc1O [METHYL SALICYLATE PF, METHYL SALICYLATE] |  | 7.7
CC(=O)CCC=C(C)C [METIL-6-HEPTEN-5-ONA-2 SUPRA, METIL-6-HEPTEN-5-ONA-2] | 7.5 | 
CC(C)(CO)Cc1ccccc1 [MUGUETALCOHOL] |  | 7.3
CC/C=C\CC/C=C/C=O [NONADIENAL TRANS,CIS-2,6] | 8.3 | 
CC/C=C/CC/C=C/CO [NONADIENOL-2,6] |  | 7.2
CCCCC1CCCC(=O)O1 (stereo not drawn) [NONALACTONE DELTA] |  | 8.2
CCCC1CCCC(=O)O1 (stereo not drawn) [OCTALACTONE DELTA] |  | 7.5
CCCCC1CCC(=O)O1 (stereo not drawn) [OCTALACTONE GAMMA] |  | 7.5
CCCCCCC(C)=O [OCTANONE-2] | 7.7 | 
CCCCCC(=O)CC [OCTANONE-3] | 7.9 | 
OCCc1ccccc1 [PHENYLETHYL ALCOHOL BA FREE, PHENYLETHYL ALCOHOL] | 7 | 
O=COCCc1ccccc1 [PHENYLETHYL FORMATE] | 7 | 
CC(=O)OCC=C(C)C [PRENYL ACETATE] | 8.1 | 
CC(=O)OC(C)c1ccccc1 (stereo not drawn) [STYRALYL ACETATE] | 7.2 | 
CC(CC=O)c1ccccc1 (stereo not drawn) [TRIFERNAL] | 7.7 | 
COc1cc(C=O)ccc1O [VANILLIN] |  | 7
CC1=CC(C)C(C=O)CC1 (stereo not drawn) [VERTOCITRAL] | 8.1 | 
HEXENYL ACETATE CIS TRANS-3 | 7.4 | 
ISOOCTANONE | 8.1 | 
MENTHONE L/ISOMENTHONE D | 8.8 | 
MENTHONE/ISOMENTHONE [MENTHONE/ISOMENTHONE RAC.] | 7.9 | 
PARMANYL® |  | 7.7

Structures can show the parent of a compound that is named as a salt.
